From US20060188956A1, “Relaxin3-gpcr135 complexes and their production and use” (priority 2003, published 2006)
These are yes or no findings as the source states them, for the method shown. Some results given as binding are weak or reduced against the parent protein; the word gives no strength.

Experiments:
[1] = target: T1, rat GPCR135 short form (rat); assay: radio-ligand binding assay on recombinantly expressed receptor
T1 sequence: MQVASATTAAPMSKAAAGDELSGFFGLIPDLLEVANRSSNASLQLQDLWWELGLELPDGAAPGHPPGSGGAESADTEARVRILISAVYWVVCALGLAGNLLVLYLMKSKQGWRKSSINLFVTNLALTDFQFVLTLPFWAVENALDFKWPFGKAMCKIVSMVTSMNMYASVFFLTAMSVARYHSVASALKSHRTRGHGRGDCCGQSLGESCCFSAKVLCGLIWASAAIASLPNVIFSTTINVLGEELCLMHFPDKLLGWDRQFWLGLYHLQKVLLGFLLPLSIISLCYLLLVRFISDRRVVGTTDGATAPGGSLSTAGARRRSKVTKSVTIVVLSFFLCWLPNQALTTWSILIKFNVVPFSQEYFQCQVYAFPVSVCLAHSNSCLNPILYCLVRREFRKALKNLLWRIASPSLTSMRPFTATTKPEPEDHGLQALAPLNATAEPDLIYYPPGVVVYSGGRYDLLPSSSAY

[2] = target: T2, rat GPCR135 long form (rat); assay: as above
T2 sequence: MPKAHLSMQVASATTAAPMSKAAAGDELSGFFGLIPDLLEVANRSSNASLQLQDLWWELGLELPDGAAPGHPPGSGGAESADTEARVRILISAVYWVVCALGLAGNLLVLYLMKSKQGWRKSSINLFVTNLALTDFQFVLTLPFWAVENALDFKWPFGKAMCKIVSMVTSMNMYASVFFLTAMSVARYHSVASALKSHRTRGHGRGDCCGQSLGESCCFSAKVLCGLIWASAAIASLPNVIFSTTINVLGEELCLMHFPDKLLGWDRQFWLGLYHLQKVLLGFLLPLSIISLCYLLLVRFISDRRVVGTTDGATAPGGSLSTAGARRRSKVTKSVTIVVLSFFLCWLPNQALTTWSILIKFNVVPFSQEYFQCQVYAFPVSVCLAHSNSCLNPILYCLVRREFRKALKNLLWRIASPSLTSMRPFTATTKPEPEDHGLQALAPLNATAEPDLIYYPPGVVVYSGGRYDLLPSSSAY

[3] = target: T1, rat GPCR135 short form (rat); assay: radioligand binding on transfected COS-7 cells, room temperature 1 h, gamma counting
mouse GPCR135 (mouse) [4] = target: T3, mouse GPCR135 (mouse) (UniProt Q8BGE9); assay: as above
T3 sequence: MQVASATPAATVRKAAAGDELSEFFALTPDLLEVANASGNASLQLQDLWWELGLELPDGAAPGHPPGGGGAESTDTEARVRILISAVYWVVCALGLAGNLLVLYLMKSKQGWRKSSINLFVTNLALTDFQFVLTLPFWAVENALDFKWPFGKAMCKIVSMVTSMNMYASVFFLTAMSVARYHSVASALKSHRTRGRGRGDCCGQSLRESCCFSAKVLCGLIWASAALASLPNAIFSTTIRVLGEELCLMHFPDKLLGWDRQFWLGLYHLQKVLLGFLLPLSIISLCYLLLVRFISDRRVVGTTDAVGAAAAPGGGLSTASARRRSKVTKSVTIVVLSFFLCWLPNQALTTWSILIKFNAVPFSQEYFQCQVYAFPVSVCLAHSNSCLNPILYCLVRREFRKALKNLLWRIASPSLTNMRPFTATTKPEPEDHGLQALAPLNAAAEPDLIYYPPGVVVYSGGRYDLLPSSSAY

[5] = target: T2, rat GPCR135 long form (rat); assay: as above
[6] = target: T1, rat GPCR135 short form (rat); assay: radioligand binding on transfected COS7 cells, with or without 1 uM unlabeled human relaxin3
mouse GPCR135 (mouse) [7] = target: T3, mouse GPCR135 (mouse); assay: as above
[8] = target: T2, rat GPCR135 long form (rat); assay: as above

Measured: binding

B1: 125I-labeled human relaxin3 (ligand)
chain 1: RAAPYGVRLCGREFIRAVIFTCGGSRW
chain 2: DVLAGLSSSCCKWGCSKSEISSLC
modifications: 125I label; labelled chain and residue not stated
binds: all assays above
